Laboratory results as given in PubChem BioAssay AID248 (DTP/NCI, 2004).
The list is a part of this screen's results and no random one: it is rich in T/C values a quarter to a half above the control, in often repeated tests (any T/C) and in doses without a T/C. Other doses and runs of a compound stand elsewhere. T/C: endpoint of the treated group in % of that of the vehicle group. Some doses have a count of surviving animals in place of a T/C: the source files T/C as zero there, which appears to mark a toxic dose or a test without result, not a measured value. Some survivor counts are full or nearly so, which does not show that the dose was tolerated: the source hardly ever lists a survival T/C far under the control, and the zero likely stands for such cases as well. Counts of survivors are from the toxicity check (mostly the fifth day) where no day follows; animals may have died later. Schedule codes are those of the source, taken here to give the interval after Q, in days (D) or hours (H), and the number of doses after X. Some doses were run more than once; their values stand side by side, smallest first. Some schedule codes hold Z or #, which are not explained here. For survival time, this PubChem deposit counts one and a half times the control or more as active, and values a quarter to a half above the control carry no call in these data; other NCI protocols may use other cut-offs. Some T/C values carry the count of animals alive at the toxicity check (mostly the fifth day); without a count, all were alive then.

Test system: L1210 leukemia ip in BDF1 mice, survival T/C
Assay: NCI In Vivo Anticancer Drug Screen. Data for tumor model L1210 Leukemia (intraperitoneal) in B6D2F1 (BDF1) mice
Conditions: T/C endpoint: mean survival time, higher T/C = longer survival
[1] = dose: 25.0 mg/kg/injection, schedule: Q01DX009 (ip), vehicle: saline
[2] = dose: 50.0 mg/kg/injection, schedule: Q01DX009 (ip), vehicle: saline
[3] = dose: 200.0 mg/kg/injection, schedule: Q01DX009 (ip), vehicle: saline with Tween-80
[4] = dose: 200.0 mg/kg/injection, schedule: Q04DX003 (ip), vehicle: saline with Tween-80
[5] = dose: 400.0 mg/kg/injection, schedule: Q04DX003 (ip), vehicle: saline with Tween-80
[6] = dose: 100.0 mg/kg/injection, schedule: Q01DX009 (ip), vehicle: Klucel (hydroxypropylcellulose) (HPC)
[7] = dose: 200.0 mg/kg/injection, schedule: Q01DX009 (ip), vehicle: Klucel (hydroxypropylcellulose) (HPC)
[8] = dose: 400.0 mg/kg/injection, schedule: Q01DX009 (ip), vehicle: Klucel (hydroxypropylcellulose) (HPC)
[9] = dose: 300.0 mg/kg/injection, schedule: Q01DX001 (ip), vehicle: saline
[10] = dose: 400.0 mg/kg/injection, schedule: Q01DX009 (ip), vehicle: carboxymethylcellulose (CMC)
[11] = dose: 100.0 mg/kg/injection, schedule: Q04DX002 (ip), vehicle: saline with Tween-80
[12] = dose: 200.0 mg/kg/injection, schedule: Q04DX002 (ip), vehicle: saline with Tween-80
[13] = dose: 400.0 mg/kg/injection, schedule: Q04DX002 (ip), vehicle: saline with Tween-80
[14] = dose: 400.0 mg/kg/injection, schedule: Q01DX009 (ip), vehicle: saline
[15] = dose: 200.0 mg/kg/injection, schedule: Q01DX009 (ip), vehicle: saline

Nc1ccc(O)c2ncccc12
survivor count [1]: 2 of 6
survivor count [2]: 0 of 6
survivor count (dose: 100.0 mg/kg/injection, schedule: Q01DX001 (ip), vehicle: saline): 0 of 4
survivor count (dose: 200.0 mg/kg/injection, schedule: Q01DX001 (ip), vehicle: saline): 0 of 4
survivor count (dose: 400.0 mg/kg/injection, schedule: Q01DX001 (ip), vehicle: saline): 0 of 4

O=C(CNC(=O)Nc1nccs1)N/N=C/c1ccc(Cl)cc1
survivor count [3]: 3 of 3

Cl/C=C\C[N+]12CN3CN(CN(C3)C1)C2
survivor count (dose: 100.0 mg/kg/injection, schedule: Q04DX003 (ip), vehicle: saline): 3 of 6

N#CC1(NC(=O)CCl)CCCCC1
survivor count (dose: 400.0 mg/kg/injection, schedule: Q01DX001 (ip), vehicle: other): 0 of 4

O=C(Nc1ccc(C(=O)O)cc1)Nc1cccc(C(F)(F)F)c1
survivor count (dose: 400.0 mg/kg/injection, schedule: Q01DX009 (ip), vehicle: saline with Tween-80): 0 of 6

CN(CCc1cnc2nc(N)nc(N)c2n1)c1ccc(C(=O)NC(CCC(=O)O)C(=O)O)cc1 (stereo not given)
T/C (dose: 6.25 mg/kg/injection, schedule: Q01DX009 (ip), vehicle: Klucel (hydroxypropylcellulose) (HPC)): 128 % of control
T/C (dose: 50.0 mg/kg/injection, schedule: Q01DX009 (ip), vehicle: Klucel (hydroxypropylcellulose) (HPC)): 133 % of control
T/C (dose: 400.0 mg/kg/injection, schedule: Q04DX003 (ip), vehicle: saline): 126 % of control

CCSC(C(OC(C)=O)C(OC(C)=O)C(OC(C)=O)C(COC(C)=O)OC(C)=O)n1cc(C)c(=O)[nH]c1=O (stereo not given)
survivor count (dose: 200.0 mg/kg/injection, schedule: Q01DX001 (ip), vehicle: carboxymethylcellulose (CMC)): 4 of 4

C#CCOC(=O)c1ccc(C(=O)OCC#C)cc1
survivor count (dose: 400.0 mg/kg/injection, schedule: Q01DX009 (ip), vehicle: saline sonified): 1 of 6

COc1ccc(CC[n+]2ccc(C#N)c(C(C)=O)c2)cc1OC
survivor count (dose: 300.0 mg/kg/injection, schedule: Q01DX001 (ip), vehicle: carboxymethylcellulose (CMC)): 1 of 6

NC1=NN(c2ccccc2)CC1
survivor count (dose: 100.0 mg/kg/injection, schedule: Q04DX003 (ip), vehicle: saline with Tween-80): 0 of 6
survivor count [4]: 0 of 6
survivor count [5]: 0 of 6

COc1ccc(CCBr)cc1
survivor count [6]: 6 of 6
survivor count [7]: 6 of 6
survivor count [8]: 5 of 6

BrCCN1CCCCC1
survivor count (dose: 12.5 mg/kg/injection, schedule: Q01DX009 (ip), vehicle: saline): 3 of 3 and 6 of 6
survivor count [1]: 3 of 6 and 2 of 3
survivor count (dose: 50.0 mg/kg/injection, schedule: Q01DX001 (ip), vehicle: saline): 3 of 6
survivor count [2]: 0 of 3 and 0 of 6
survivor count (dose: 50.0 mg/kg/injection, schedule: Q04DX002 (ip), vehicle: saline): 3 of 3
survivor count (dose: 50.0 mg/kg/injection, schedule: Q04DX003 (ip), vehicle: saline): 2 of 6
survivor count (dose: 100.0 mg/kg/injection, schedule: Q04DX002 (ip), vehicle: saline): 0 of 3 and 0 of 6
survivor count (dose: 200.0 mg/kg/injection, schedule: Q04DX002 (ip), vehicle: saline): 0 of 3 and 0 of 6
survivor count (dose: 400.0 mg/kg/injection, schedule: Q04DX002 (ip), vehicle: saline): 0 of 3 and 0 of 6

CCCCCCCC/C=C/CCCCCCCC(=O)NCC[N+]1(C)CCCCC1
survivor count (dose: 150.0 mg/kg/injection, schedule: Q01DX001 (ip), vehicle: saline): 0 of 6
survivor count [9]: 0 of 6

NC(N)=N/N=C(/c1ccccc1)c1ccc(F)cc1
T/C (dose: 50.0 mg/kg/injection, schedule: Q01DX009 (ip), vehicle: carboxymethylcellulose (CMC)): 134 % of control [5 of 6 alive]
survivor count (dose: 60.0 mg/kg/injection, schedule: Q01DX Z (ip), vehicle: saline): 2 of 6
survivor count (dose: 60.0 mg/kg/injection, schedule: Q01DX Z (oral), vehicle: saline): 6 of 6
T/C (dose: 80.0 mg/kg/injection, schedule: Q01DX001 (ip), vehicle: other): 128 % of control
survivor count (dose: 80.0 mg/kg/injection, schedule: Q01DX009 (ip), vehicle: other): 0 of 6
T/C (dose: 100.0 mg/kg/injection, schedule: Q01DX009 (ip), vehicle: carboxymethylcellulose (CMC)): 136 % of control
survivor count (dose: 120.0 mg/kg/injection, schedule: Q01DX Z (ip), vehicle: saline): 0 of 6
survivor count (dose: 120.0 mg/kg/injection, schedule: Q01DX Z (oral), vehicle: saline): 5 of 6
survivor count (dose: 160.0 mg/kg/injection, schedule: Q01DX001 (ip), vehicle: other): 2 of 6
survivor count (dose: 160.0 mg/kg/injection, schedule: Q01DX009 (ip), vehicle: carboxymethylcellulose (CMC)): 0 of 6
survivor count (dose: 160.0 mg/kg/injection, schedule: Q01DX009 (ip), vehicle: other): 0 of 6
survivor count (dose: 200.0 mg/kg/injection, schedule: Q01DX009 (ip), vehicle: carboxymethylcellulose (CMC)): 0 of 6
survivor count [10]: 0 of 6

O=C(O)c1ccc([N+](=O)[O-])c(P(=O)(O)O)c1
survivor count [9]: 2 of 6

CCCCC(C)(CCN)CCCC
survivor count (dose: 200.0 mg/kg/injection, schedule: Q01DX015 (ip), vehicle: carboxymethylcellulose (CMC)): 0 of 6

C[CH2][Ge]([CH2]C)[O][Ge]([CH2]C)[CH2]C.C[CH2][Ge]([CH2]C)[O][Ge]([CH2]C)[CH2]C
survivor count [11]: 0 of 3
survivor count [12]: 0 of 3
survivor count [13]: 0 of 3

O=Cc1ccc(OC(=O)Nc2ccccc2F)cc1
survivor count [14]: 1 of 3

CCCCCCCCCCCCCC(=O)CC
T/C [3]: 129 % of control

CC(=O)Oc1ccc[nH]c1=O
T/C [15]: 130 % of control
T/C [10]: 129 % of control
T/C [14]: 149 % of control
T/C (dose: 400.0 mg/kg/injection, schedule: Q01DX015 (ip), vehicle: saline): 138 % of control
T/C (dose: 500.0 mg/kg/injection, schedule: Q01DX009 (ip), vehicle: saline): 139 % of control
T/C (dose: 600.0 mg/kg/injection, schedule: Q01DX009 (ip), vehicle: saline): 141 and 148 % of control [5 of 6 alive]
T/C (dose: 800.0 mg/kg/injection, schedule: Q01DX009 (ip), vehicle: saline): 137 % of control
T/C (dose: 800.0 mg/kg/injection, schedule: Q01DX015 (ip), vehicle: saline): 142 % of control
survivor count (dose: 1000.0 mg/kg/injection, schedule: Q01DX009 (ip), vehicle: saline): 2 of 6
survivor count (dose: 1200.0 mg/kg/injection, schedule: Q01DX009 (ip), vehicle: saline): 0 of 6

NC(=S)N/N=C/c1ccc(OC(F)(F)F)cn1
T/C [11]: 142 % of control
survivor count [12]: 2 of 3
survivor count [13]: 0 of 3

[Cl][Hg][c]1ccc2ccccc2c1
survivor count (dose: 6.25 mg/kg/injection, schedule: Q01DX009 (ip), vehicle: saline with Tween-80): 3 of 3
survivor count (dose: 25.0 mg/kg/injection, schedule: Q01DX009 (ip), vehicle: saline with Tween-80): 2 of 3

C=C(Br)CNC(=O)NCC
survivor count [4]: 3 of 6
survivor count [5]: 0 of 6

CSc1ccc(NC(=O)Nc2cc(C)c(C)cc2C)cc1
survivor count (dose: 100.0 mg/kg/injection, schedule: Q01DX009 (ip), vehicle: other): 6 of 6

O=C1OCCS1
survivor count [15]: 1 of 6
survivor count [14]: 0 of 6

c1ccc2c(c1)CCc1ccccc1CN(CCNC1=NCCN1)C2
survivor count [6]: 0 of 6
survivor count [7]: 0 of 6
survivor count [8]: 0 of 6
